From publication PMC11447182
These are yes or no findings as the source states them, for the method shown. In cells and extracts the contact can be indirect. Some binding calls cover weakened binding; strength is not graded here.

Biological target: HJURP (Holliday Junction Recognition Protein) (UniProt Q8NCD3)
Assay: co-IP; IP of HJURP from breast cancer cell lines, SLC7A11 and FTH1 detected by Western blot

binding: binds
Substance: FTH1 (Ferritin Heavy Chain 1) (from UniProt P02794 1-183)
